Publication PMC12126231
Residue numbers refer to the chain shown, from its start. Results are given in words; binding and its absence hold for the method and conditions named. Binding seen in cells or lysates may run through a third protein. Some results given as binding are weak or reduced against the parent protein; the word gives no strength. Where a sequence is shown, tags or fusion partners need not be part of it.

Chains of the proteins cited; added tags and fusions are not shown.
UniProt Q01147: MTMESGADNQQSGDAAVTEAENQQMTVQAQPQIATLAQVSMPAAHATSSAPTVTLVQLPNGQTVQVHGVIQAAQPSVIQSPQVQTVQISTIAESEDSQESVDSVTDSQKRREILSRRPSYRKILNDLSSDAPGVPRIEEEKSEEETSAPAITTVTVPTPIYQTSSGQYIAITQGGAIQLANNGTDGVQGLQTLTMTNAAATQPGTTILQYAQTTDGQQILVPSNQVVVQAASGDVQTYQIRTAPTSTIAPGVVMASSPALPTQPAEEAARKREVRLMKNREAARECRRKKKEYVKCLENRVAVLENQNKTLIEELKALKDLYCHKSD

How the values were obtained:
[1] = target: T1, FLAG-tagged S349D CRTC2 (UniProt Q3U182); assay: co-IP; AML12 cells transfected with FLAG-tagged CRTC2 plasmids, treated with vehicle or cAMP (8-Br-cAMP) for 1 hour; lysates incubated with magnetic FLAG beads in PP1 homogenization buffer (50 mM HEPES pH 7.2, 2 mM EDTA, 0.2% β-mercaptoethanol, 2 mg/mL glycogen); washed 3 times; blot for CREB
T1 sequence: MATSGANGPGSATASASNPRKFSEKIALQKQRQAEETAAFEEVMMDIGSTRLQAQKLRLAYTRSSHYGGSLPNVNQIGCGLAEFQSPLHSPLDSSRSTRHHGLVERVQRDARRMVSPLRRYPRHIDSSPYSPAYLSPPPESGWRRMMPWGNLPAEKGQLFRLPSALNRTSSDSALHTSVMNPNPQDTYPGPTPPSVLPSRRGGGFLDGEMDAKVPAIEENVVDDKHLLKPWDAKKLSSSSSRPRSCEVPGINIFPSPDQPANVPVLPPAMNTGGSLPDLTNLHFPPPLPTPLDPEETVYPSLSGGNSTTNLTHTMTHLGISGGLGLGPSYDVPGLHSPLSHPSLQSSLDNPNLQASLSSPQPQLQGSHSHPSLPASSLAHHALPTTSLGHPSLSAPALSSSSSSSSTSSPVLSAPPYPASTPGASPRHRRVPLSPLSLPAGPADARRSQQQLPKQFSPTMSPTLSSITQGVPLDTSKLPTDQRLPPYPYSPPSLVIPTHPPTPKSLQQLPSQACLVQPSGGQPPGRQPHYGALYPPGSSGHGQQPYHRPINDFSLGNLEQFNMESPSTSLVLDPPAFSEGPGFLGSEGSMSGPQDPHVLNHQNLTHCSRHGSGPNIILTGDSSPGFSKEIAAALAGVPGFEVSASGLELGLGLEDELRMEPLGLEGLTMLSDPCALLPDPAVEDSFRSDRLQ

[2] = target: T2, FLAG-tagged WT CREB-regulated transcriptional coactivator 2 (CRTC2) (UniProt Q3U182); assay: as above
T2 sequence: T1 sequence with D349S

binding [1]: binds
binding [2]: binds
Substance: cAMP-responsive element-binding protein (CREB) (from UniProt Q01147 1-327)
